The record followed here is patent US20140011746A1 (WISCONSIN ALUMNI RESEARCH FOUNDATION, published 2014).

Protein sequences, listed by entry. Tags and fused reporters are not part of them. Lines headed by an entry give the natural chain unless they say otherwise; changes in a name come on top.
UniProt P26006: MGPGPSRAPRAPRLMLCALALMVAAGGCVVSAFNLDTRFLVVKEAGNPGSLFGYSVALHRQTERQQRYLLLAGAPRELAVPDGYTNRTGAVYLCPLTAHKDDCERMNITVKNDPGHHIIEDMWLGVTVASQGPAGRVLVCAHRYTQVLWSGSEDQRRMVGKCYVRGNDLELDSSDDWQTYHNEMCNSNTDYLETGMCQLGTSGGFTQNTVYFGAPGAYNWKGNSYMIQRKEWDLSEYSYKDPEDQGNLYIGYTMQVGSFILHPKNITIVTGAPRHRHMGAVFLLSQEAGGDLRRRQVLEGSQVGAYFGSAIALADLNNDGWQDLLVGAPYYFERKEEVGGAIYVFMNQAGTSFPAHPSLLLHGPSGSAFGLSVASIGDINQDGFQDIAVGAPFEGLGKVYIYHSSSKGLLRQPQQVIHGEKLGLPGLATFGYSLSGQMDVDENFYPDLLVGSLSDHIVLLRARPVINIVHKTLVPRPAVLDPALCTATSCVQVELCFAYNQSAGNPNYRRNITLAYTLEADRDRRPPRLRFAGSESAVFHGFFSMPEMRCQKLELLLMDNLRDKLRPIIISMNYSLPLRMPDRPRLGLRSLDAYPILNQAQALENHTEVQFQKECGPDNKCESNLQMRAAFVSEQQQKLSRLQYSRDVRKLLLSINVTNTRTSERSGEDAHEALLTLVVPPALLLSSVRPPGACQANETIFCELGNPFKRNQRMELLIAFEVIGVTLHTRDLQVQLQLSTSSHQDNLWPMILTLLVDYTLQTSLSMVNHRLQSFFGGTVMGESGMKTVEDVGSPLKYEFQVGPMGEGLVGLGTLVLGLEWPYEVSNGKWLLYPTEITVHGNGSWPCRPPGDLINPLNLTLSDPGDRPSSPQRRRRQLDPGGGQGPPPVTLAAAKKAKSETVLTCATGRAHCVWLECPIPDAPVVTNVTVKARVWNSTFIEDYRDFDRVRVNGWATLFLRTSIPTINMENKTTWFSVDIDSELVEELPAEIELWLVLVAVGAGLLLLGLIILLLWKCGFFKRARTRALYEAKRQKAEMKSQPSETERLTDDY

One assay has as its target T1, α3β1 integrin (human, UniProt P26006 33-1051; P05556 21-798).
T1 construct: whole, on cells; Endogenous receptor in cell lysates
Description: immunoprecipitation (FIG. 6D).

The target in assay [1] is T2, HER2 (human, UniProt P04626 23-1255).
T2 construct: whole, on cells; Endogenous protein in cell lysates; also called ErbB2; HER2/Neu
Description: co-immunoprecipitation from cell lysates.

The target of assay [2] is T2, HER2. The assay can be described thus: co-immunoprecipitation from HNSCC, MCF10A and BT474 cell lysates.
Assay [3] concerns the target T2, HER2. The assay can be described thus: immunoprecipitation from MCF10A or BT474 lysates, blot probed for HER2 (FIG. 5).

Results are given in words; binding and its absence hold for the method and conditions named. For some of these results: In cells and extracts the contact can be indirect. Some results given as binding are weak or reduced against the parent protein; the word gives no strength.

B1: mouse syndecan-4 (receptor, UniProt O35988 24-198, looked up)
chain: ESIRETEVIDPQDLLEGRYFSGALPDDEDAGGSDDFELSGSGDLDDTEEPRPFPEVIEPLVPLDNHIPENAQPGIRVPSEPKELEENEVIPKRAPSDVGDDMSNKVSMSSTAQGSNIFERTEVLAALIVGGVVGILFAVFLILLLVYRMKKKDEGSYDLGKKPIYKKAPTNEFYA
Turning to B1, in the assay with α3β1 integrin, the binding entry is on record as “binds”.

B2: human syndecan-1 (receptor)
chain: QIVATNLPPEDQDGSGDDSDNFSGSGAGALQDITLSQQTPSTWKDTQLLTAIPTSPEPTGLEATAASTSTLPAGEGPKEGEAVVLPEVEPGLTAREQEATPRPRETTQLPTTHQASTTTATTAQEPATSHPHRDMQPGHHETSTPAGPSQADLHTPHTEDGGPSATERAAEDGASSQLPAAEGSGEQDFTFETSGENTAVVAVEPDRRNQSPVDQGATGASQGLLDRKEVLGGVIAGGLVGLIFAVCLVGFMLYRMKKKDEGSYSLEEPKQANGGAYQKPTKQEEFYA
notes: Endogenous Sdc1 of human cells, immunoprecipitated from cell lysates; also called hSdc1; Sdc1
As for B2, the binding entry in the assay with HER2 [1], with HER2 [2] and in the assay with HER2 [3] was “binds” each time.
